# The list does not hold the whole screen: it is rich in T/C values a quarter to a half above the control, in often repeated tests (any T/C) and in doses without a T/C. Other doses and runs of a compound stand elsewhere. T/C: endpoint of the treated group in % of that of the vehicle group. Some doses have a count of surviving animals in place of a T/C: the source holds a T/C of zero for them, seemingly a mark for toxic or unscored doses. Some doses without a T/C left all or most animals alive at the check, yet need not have been tolerated: the source hardly ever lists a survival T/C far under the control, and the zero likely stands for such cases as well. Counts of survivors are from the toxicity check (mostly the fifth day) where no day follows; animals may have died later. Schedule codes are those of the source, taken here to give the interval after Q, in days (D) or hours (H), and the number of doses after X. Some doses were run more than once; their values stand side by side, smallest first. Some schedule codes hold Z or #, which are not explained here. Where survival is the endpoint, the PubChem record calls one and a half times the control and up active, and a quarter to a half above the control has no call in these data; cut-offs in other NCI protocols can differ.
# Test system: L1210 leukemia ip in BDF1 mice, survival T/C
# Test: NCI In Vivo Anticancer Drug Screen. Data for tumor model L1210 Leukemia (intraperitoneal) in B6D2F1 (BDF1) mice
# Conditions: T/C endpoint: mean survival time, higher T/C = longer survival
# [1] = dose: 100.0 mg/kg/injection, schedule: Q01DX009 (ip), vehicle: saline with Tween-80
# [2] = dose: 400.0 mg/kg/injection, schedule: Q01DX009 (ip), vehicle: saline with Tween-80
# [3] = dose: 400.0 mg/kg/injection, schedule: Q04DX003 (ip), vehicle: saline with Tween-80
# [4] = dose: 200.0 mg/kg/injection, schedule: Q04DX003 (ip), vehicle: Klucel (hydroxypropylcellulose) (HPC)
# [5] = dose: 200.0 mg/kg/injection, schedule: Q01DX001 (ip), vehicle: Klucel (hydroxypropylcellulose) (HPC)
# [6] = dose: 400.0 mg/kg/injection, schedule: Q01DX001 (ip), vehicle: Klucel (hydroxypropylcellulose) (HPC)
# [7] = dose: 200.0 mg/kg/injection, schedule: Q04DX003 (ip), vehicle: saline with Tween-80
# [8] = dose: 200.0 mg/kg/injection, schedule: Q01DX001 (ip), vehicle: saline with Tween-80
# [9] = dose: 400.0 mg/kg/injection, schedule: Q01DX001 (ip), vehicle: saline with Tween-80
# [10] = dose: 100.0 mg/kg/injection, schedule: Q04DX003 (ip), vehicle: saline with Tween-80
# [11] = dose: 150.0 mg/kg/injection, schedule: Q01DX009 (ip), vehicle: Klucel (hydroxypropylcellulose) (HPC)
smiles,measurement,setting,value
CN=C(NC)c1cccc(NC(=O)/C=C\c2ccc(/C=C/C(=O)Nc3cccc(C(=NC)NC)c3)cc2)c1,T/C,"dose: 4.5 mg/kg/injection, schedule: Q01DX Z (ip), vehicle: carboxymethylcellulose (CMC)",127 % of control
same,T/C,"dose: 4.5 mg/kg/injection, schedule: Q01DX Z (ip), vehicle: water",143 % of control
same,survivor count,"dose: 9.0 mg/kg/injection, schedule: Q01DX Z (ip), vehicle: water",0 of 6
same,survivor count,"dose: 18.0 mg/kg/injection, schedule: Q01DX Z (ip), vehicle: water",0 of 6
same,survivor count,"dose: 36.0 mg/kg/injection, schedule: Q01DX Z (ip), vehicle: water",0 of 6
CCCCCCCCCCOC(=O)CCN1CC1,survivor count,[1],4 of 6
same,survivor count,"dose: 200.0 mg/kg/injection, schedule: Q01DX009 (ip), vehicle: saline with Tween-80",0 of 6
same,survivor count,[2],0 of 6
same,survivor count,[3],6 of 6
COc1cc2c(cc1OC)C1CCN3CCCC3N1CC2 (centres undefined),survivor count,[4],3 of 6
same,survivor count,"dose: 400.0 mg/kg/injection, schedule: Q04DX003 (ip), vehicle: Klucel (hydroxypropylcellulose) (HPC)",1 of 6
Cc1cccnc1NC(=O)/C=C/C(=O)O,survivor count,"dose: 75.0 mg/kg/injection, schedule: Q01DX009 (ip), vehicle: alcohol",1 of 6
same,survivor count,"dose: 100.0 mg/kg/injection, schedule: Q04DX003 (ip), vehicle: acetone",1 of 6
same,survivor count,"dose: 115.0 mg/kg/injection, schedule: Q01DX009 (ip), vehicle: alcohol",0 of 6
same,survivor count,"dose: 170.0 mg/kg/injection, schedule: Q01DX009 (ip), vehicle: alcohol",0 of 6
same,survivor count,"dose: 200.0 mg/kg/injection, schedule: Q04DX003 (ip), vehicle: acetone",0 of 6
same,survivor count,"dose: 400.0 mg/kg/injection, schedule: Q04DX003 (ip), vehicle: acetone",0 of 6
Nc1ncnc2c1ncn2C1OC(C2CC2)C(O)C1O (centres undefined),survivor count,"dose: 200.0 mg/kg/injection, schedule: Q01DX005 (ip), vehicle: saline",0 of 6
NNC(=O)c1ccc(Cl)cc1Nc1ccc(Cl)cc1,survivor count,[5],1 of 6
same,survivor count,[6],0 of 6
CC1(C)N=C(N)N=C(N)N1c1ccc(Cl)c(C(F)(F)F)c1,T/C,"dose: 5.56 mg/kg/injection, schedule: Q01DX009 (ip), vehicle: saline with Tween-80",126 % of control
same,T/C,"dose: 12.5 mg/kg/injection, schedule: Q01DX009 (ip), vehicle: saline with Tween-80",131 % of control
same,T/C,"dose: 18.75 mg/kg/injection, schedule: Q01DX009 (ip), vehicle: saline with Tween-80",139 % of control
same,survivor count,"dose: 50.0 mg/kg/injection, schedule: Q01DX009 (ip), vehicle: saline with Tween-80",6 of 6
same,survivor count,"dose: 75.0 mg/kg/injection, schedule: Q01DX009 (ip), vehicle: saline with Tween-80",6 of 6
same,survivor count,[7],3 of 6
same,survivor count,[3],1 of 6
Cc1ccc(C(=O)NCCCOc2ccc(N)cc2Cl)cc1S(=O)(=O)F,survivor count,[2],3 of 6
CCCCCCCCCCCCN1CCCC(O)C1 (centres undefined),survivor count,[3],0 of 6
OC1C2CCC(CC2)C1O (centres undefined),survivor count,"dose: 37.0 mg/kg/injection, schedule: Q01DX001 (ip), vehicle: other",3 of 6
same,survivor count,"dose: 75.0 mg/kg/injection, schedule: Q01DX001 (ip), vehicle: other",2 of 6
same,survivor count,"dose: 150.0 mg/kg/injection, schedule: Q01DX001 (ip), vehicle: other",0 of 6
same,survivor count,"dose: 300.0 mg/kg/injection, schedule: Q01DX001 (ip), vehicle: other",0 of 6
O=C(O)C1CCC(C(=O)O)c2ccccc21 (centres undefined),survivor count,[4],6 of 6
COc1ccc([N+](=O)[O-])cc1NC(=O)Nc1ccc(SC)cc1,survivor count,"dose: 100.0 mg/kg/injection, schedule: Q01DX009 (ip), vehicle: Klucel (hydroxypropylcellulose) (HPC)",6 of 6
CNc1nc(NC)nc(NC)n1,survivor count,"dose: 400.0 mg/kg/injection, schedule: Q01DX009 (ip), vehicle: Klucel (hydroxypropylcellulose) (HPC)",0 of 10
Nc1nc(=S)c2n[nH]nc2[nH]1,survivor count,[8],1 of 6
same,survivor count,[9],1 of 6
Cc1cc(NC(=O)Nc2cc([N+](=O)[O-])ccc2Cl)no1,survivor count,[5],6 of 6
same,survivor count,[6],5 of 6
O=C(O)CCI,survivor count,"dose: 400.0 mg/kg/injection, schedule: Q04DX003 (ip), vehicle: other",3 of 6
C/C(CCCCl)=N/NC(N)=S,survivor count,"dose: 25.0 mg/kg/injection, schedule: Q01DX009 (ip), vehicle: saline",6 of 6
same,survivor count,"dose: 50.0 mg/kg/injection, schedule: Q04DX003 (ip), vehicle: saline with Tween-80",5 of 6
same,survivor count,[10],6 of 6
same,survivor count,[7],1 of 6
same,survivor count,"dose: 400.0 mg/kg/injection, schedule: Q01DX001 (ip), vehicle: acetone",2 of 6
CNc1ccc(N=Nc2ccc3ncccc3c2)cc1,survivor count,"dose: 22.5 mg/kg/injection, schedule: Q01DX Z (ip), vehicle: carboxymethylcellulose (CMC)",6 of 6
CCOC(=O)C1CN(C2CCCCC2)CCC1=O (centres undefined),survivor count,"dose: 300.0 mg/kg/injection, schedule: Q01DX001 (ip), vehicle: saline",3 of 6
CCc1cc[c]([Hg][Cl])o1,survivor count,"dose: 50.0 mg/kg/injection, schedule: Q01DX001 (ip), vehicle: other",3 of 6
same,survivor count,"dose: 100.0 mg/kg/injection, schedule: Q01DX001 (ip), vehicle: other",0 of 6
same,survivor count,"dose: 200.0 mg/kg/injection, schedule: Q01DX001 (ip), vehicle: other",1 of 6
same,survivor count,"dose: 400.0 mg/kg/injection, schedule: Q01DX001 (ip), vehicle: other",0 of 6
CSc1nc(N)nc2c1ncn2C1CC(O)C(CO)O1 (centres undefined),T/C,"dose: 400.0 mg/kg/injection, schedule: Q01DX005 (ip), vehicle: saline",126 % of control
CCCNC(=O)c1cc(NC(=O)Nc2ccc(C3=NCCN3)cc2)cc(NC(=O)Nc2ccc(C3=NCCN3)cc2)c1,T/C,"dose: 10.0 mg/kg/injection, schedule: Q01DX Z (ip), vehicle: carboxymethylcellulose (CMC)",137 % of control
same,T/C,"dose: 21.0 mg/kg/injection, schedule: Q01DX Z (ip), vehicle: carboxymethylcellulose (CMC)",128 % of control
same,survivor count,"dose: 84.0 mg/kg/injection, schedule: Q01DX Z (ip), vehicle: carboxymethylcellulose (CMC)",6 of 6
same,survivor count,"dose: 168.0 mg/kg/injection, schedule: Q01DX Z (ip), vehicle: carboxymethylcellulose (CMC)",4 of 6
O=C1NCCN1c1cccc([N+](=O)[O-])c1,survivor count,[5],2 of 6
same,survivor count,[6],1 of 6
CN(C)N=Nc1ccccc1C(=O)NNC(N)=S,survivor count,"dose: 18.75 mg/kg/injection, schedule: Q01DX009 (ip), vehicle: Klucel (hydroxypropylcellulose) (HPC)",5 of 6
same,T/C,"dose: 37.5 mg/kg/injection, schedule: Q01DX009 (ip), vehicle: Klucel (hydroxypropylcellulose) (HPC)",129 % of control
same,T/C,"dose: 75.0 mg/kg/injection, schedule: Q01DX009 (ip), vehicle: Klucel (hydroxypropylcellulose) (HPC)",126 % of control
same,T/C,[11],126 % of control
same,survivor count,[11],3 of 6
same,survivor count,"dose: 300.0 mg/kg/injection, schedule: Q01DX009 (ip), vehicle: Klucel (hydroxypropylcellulose) (HPC)",1 of 6 and 3 of 6
O=P(c1ccco1)(c1ccco1)c1ccco1,survivor count,[10],5 of 6
same,survivor count,[7],1 of 6
same,survivor count,[3],0 of 6
COc1ccc(Cl)cc1NC(=O)C(Cl)(Cl)Cl,survivor count,[1],3 of 3
same,survivor count,[8],6 of 6
same,survivor count,[9],6 of 6
same,survivor count,[2],3 of 3 and 6 of 6
O=C(O)CC(Br)C(=O)O (centres undefined),survivor count,"dose: 400.0 mg/kg/injection, schedule: Q04DX003 (ip), vehicle: saline",2 of 6
C[N+](C)(CC(=O)Nc1ccc(Oc2ccc(Cl)cc2)cc1)Cc1ccccc1,survivor count,"dose: 50.0 mg/kg/injection, schedule: Q01DX009 (ip), vehicle: Klucel (hydroxypropylcellulose) (HPC)",0 of 6
